Assay results published in article PMC9997211.
These are yes or no findings as the source states them, for the method shown. In cells and extracts the contact can be indirect.

Biological target: T1, ZEB1 (WT), zinc finger E-box binding homeobox 1, P37275
T1 chain: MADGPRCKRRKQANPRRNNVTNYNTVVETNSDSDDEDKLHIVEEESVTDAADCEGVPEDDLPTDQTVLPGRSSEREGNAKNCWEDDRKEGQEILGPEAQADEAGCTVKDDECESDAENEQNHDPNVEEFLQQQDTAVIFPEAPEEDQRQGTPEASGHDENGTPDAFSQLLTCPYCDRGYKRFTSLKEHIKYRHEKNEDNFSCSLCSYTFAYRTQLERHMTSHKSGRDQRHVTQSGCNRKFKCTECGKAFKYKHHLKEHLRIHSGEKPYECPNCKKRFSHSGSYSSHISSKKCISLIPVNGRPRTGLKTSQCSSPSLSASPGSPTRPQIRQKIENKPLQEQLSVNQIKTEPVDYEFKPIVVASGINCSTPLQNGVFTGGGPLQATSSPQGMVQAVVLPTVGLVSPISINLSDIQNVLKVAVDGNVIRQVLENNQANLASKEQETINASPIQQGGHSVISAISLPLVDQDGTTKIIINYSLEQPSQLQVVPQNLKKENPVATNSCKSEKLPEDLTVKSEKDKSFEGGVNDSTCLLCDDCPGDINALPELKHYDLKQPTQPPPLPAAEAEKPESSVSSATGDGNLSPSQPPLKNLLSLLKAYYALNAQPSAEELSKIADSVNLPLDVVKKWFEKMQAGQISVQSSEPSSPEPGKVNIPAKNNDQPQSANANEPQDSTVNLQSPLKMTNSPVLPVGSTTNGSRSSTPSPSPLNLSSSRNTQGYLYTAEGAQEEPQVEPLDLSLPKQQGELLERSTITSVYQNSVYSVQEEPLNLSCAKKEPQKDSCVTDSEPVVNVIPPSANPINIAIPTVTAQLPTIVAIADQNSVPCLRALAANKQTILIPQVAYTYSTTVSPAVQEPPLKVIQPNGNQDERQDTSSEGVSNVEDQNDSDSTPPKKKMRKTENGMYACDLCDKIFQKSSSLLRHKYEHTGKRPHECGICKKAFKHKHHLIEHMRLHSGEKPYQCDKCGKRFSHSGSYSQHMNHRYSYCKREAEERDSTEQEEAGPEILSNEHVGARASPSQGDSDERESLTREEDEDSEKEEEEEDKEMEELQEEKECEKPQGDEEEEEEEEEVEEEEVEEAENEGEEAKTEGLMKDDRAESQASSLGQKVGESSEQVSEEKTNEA
Experiment: co-IP; lysates of HEK293T cells transfected with combinations of two tagged proteins; immunoprecipitation with anti-HA tag antibody-conjugated agarose beads, western blotting with tag antibodies
Details: remark: other sources report otherwise

B1: ZEB1 (WT), zinc finger E-box binding homeobox 1, P37275 1-1124 (protein)
chain: T1 chain
Question: B1 was tested. Which binding did it give?
Answer: Its binding is “no binding”.
